Reference: PubChem BioAssay AID540276 (National Center for Advancing Translational Sciences (NCATS), 2011)
The whole screen tested about 300,000 compounds, of which about 5,400 (1.8%) were called active. Inconclusive results, whose numbers are uncertain, are shown with a selection of clear calls. Calls follow the shape of the full dose curve; tested in HEK293 cells. A potency beside an inconclusive call is a rough fit, not a confirmed value.

experiment: qHTS for inhibitors of binding or entry into cells for Marburg Virus; details: Marburg virus pseudotyped entry inhibition, cell reporter; series mostly up to 37.8 µM
Potency is read from the fitted curve at half-maximal effect.

Structure (SMILES)	Potency
NS(=O)(=O)c1cc(C(=O)Nc2ccc3c(c2)OCCCO3)ccc1Cl	inconclusive: 3.16 µM [activator, single point]
COC(=O)C1(O)CC(C(C)C)=NN1C(=O)c1ccccc1 (centres undefined)	inconclusive: 0.562 µM [inhibitor, full curve, poor fit]
Cc1ccc(CNc2nc3ccccc3n3nnnc23)cc1	inconclusive: 17.8 µM [activator, partial curve, poor fit]
Cc1cc(C)cc(NC(=O)C2CCCN(c3cnccn3)C2)c1 (centres undefined)	inactive
CN(Cc1ccccc1)C(=C(Cl)Cl)/C(=C1/NCCN1C)[N+](=O)[O-]	inconclusive: 22.4 µM [activator, partial curve, poor fit]
Cc1ccc(S(=O)(=O)c2cnc(SCC(=O)Nc3ccccc3C(F)(F)F)[nH]c2=O)cc1C	inactive
C=CCn1c(NCc2ccccc2)nc2ccccc21	inconclusive: 25.9 µM [inhibitor, single point]
CN(C)CCOCCOc1ccc(Cl)cc1C(C)(C)C	inconclusive: 11.2 µM [inhibitor, partial curve, poor fit]
CC(=O)Nc1ccc2c(c1)Cc1ccc(Cl)cc1-2	inconclusive: 3.16 µM [activator, single point]
CC(/C=C1\SC(=Nc2cccnc2)NC1=O)=C\c1ccccc1	inconclusive: 10 µM [inhibitor, partial curve, poor fit]
COc1ccc(CN2CCNC(=O)C2CC(=O)NCCSc2nccn2C)c(OC)c1 (centres undefined)	inactive
CCOc1ccccc1Nc1nnc(C)c(=O)[nH]1	inactive
CCCN1C(=O)SC(CC(=O)Nc2ccccc2)C1=O (centres undefined)	inactive
CN(C)C(=O)c1ccc(NC(=O)c2cc(-n3cnnc3)ccc2Cl)cc1	inactive
Cc1ccccc1C(=O)Oc1cc(-c2ccc3c(c2)OCO3)cc(=O)c2c(C)oc(C)c12	inactive
O=C(COc1ccccc1Cl)N(Cc1ccco1)Cc1ccco1	inactive
CCC1=NN(C(=O)c2cccc(Br)c2)C(O)(c2ccc(Br)cc2)C1 (centres undefined)	inconclusive: 0.259 µM [activator, single point]
CN(C)c1ccc(NC(=O)CSc2nc(-c3ccco3)cc(C(F)(F)F)n2)cc1	inconclusive: 0.562 µM [inhibitor, full curve, poor fit]
CC(=NNC(=S)N1CC2CCC(CC2)C1)c1ccncn1	inconclusive: 0.126 µM [inhibitor, full curve, poor fit]
Cc1ccc(S(=O)(=O)c2nc(-c3cccs3)oc2NCCCN(C)C)cc1	inconclusive: 20 µM [inhibitor, single point]
C(=N\n1cnnc1)/c1nc2ccccc2[nH]1	inactive
COC(=O)c1nn(-c2ccc(Oc3ccccc3)cc2)c(=O)cc1O	inactive
Cc1nc2c(c(=O)n1CCC(C)C)c1nc3ccccc3nc1n2CC1CCCO1 (centres undefined)	inconclusive: 7.94 µM [activator, partial curve, poor fit]

Structure (SMILES)	Potency
O=C(NCCCCNC(=O)c1ccc(Br)cc1)c1ccc(Br)cc1	inactive
O=C(N=C1SC2CS(=O)(=O)CC2N1c1ccccc1Cl)C1CCCO1 (centres undefined)	inconclusive: 3.16 µM [inhibitor, single point]
O=C(Nc1cccc2ccccc12)N(c1ccccc1)c1ccccc1	inconclusive: 0.562 µM [activator, full curve, poor fit]
CCC(Sc1nc2cc(OC)c(OC)cc2c(=O)n1CCc1ccc(S(N)(=O)=O)cc1)C(=O)NCCOC (centres undefined)	inconclusive: 22.4 µM [inhibitor, partial curve, poor fit]
CN(c1ccc(OCC(=O)OCC(=O)Nc2ccccc2)cc1)S(=O)(=O)c1cccs1	inconclusive: 7.08 µM [activator, partial curve, poor fit]
C=CCN(C(=O)C1CC(=O)N(C2CCCC2)C1)c1nc(-c2ccc(S(C)(=O)=O)cc2)cs1 (centres undefined)	inconclusive: 35.5 µM [inhibitor, single point]
CCN1/C(=C\C(=S)Nc2ccccc2)Sc2ccccc21	inconclusive: 17.8 µM [inhibitor, single point]
COc1cc(S(=O)(=O)Nc2ccccc2C(=O)N2CCCC2)ccc1NC(C)=O	inconclusive: 20 µM [activator, single point]
CCOC(=O)C1=NN(C(=O)c2ccc(OC)cc2)C(O)(c2ccc(Cl)cc2)C1 (centres undefined)	inconclusive: 7.94 µM [activator, partial curve]
COc1ccc(CNC(=O)CN(c2cc(C(F)(F)F)ccc2Cl)S(C)(=O)=O)cc1	inconclusive: 3.16 µM [activator, single point]
O=C(O)c1cc(-n2nnnc2SCc2ccccc2F)ccc1Cl	inactive
CCc1nc(NCCN)c(C#N)c2c1CSC(C)(C)C2	inconclusive: 35.5 µM [inhibitor, single point]
COc1ccc(C2=NC3(CCCCCC3)N(CC(=O)Nc3ccc(C)c(C)c3)C2=O)cc1	inconclusive: 35.5 µM [inhibitor, single point]
O=C(CCCc1c[nH]c2ccccc12)N1CCCCCC1	inactive
c1cncc(Nc2nc(-c3cccs3)cs2)c1	inactive
CN(C)S(=O)(=O)c1ccc(N2CCCC2)c(C(=O)N2CCC(C(N)=O)CC2)c1	inactive
CCc1nc(SCC(=O)Nc2cccc3ccccc23)[nH]c(=O)c1C	inconclusive: 11.2 µM [inhibitor, partial curve, poor fit]
Cc1ccc2ncc(S(=O)(=O)c3ccccc3)c(N3CCCCC3C)c2c1 (centres undefined)	inconclusive: 35.5 µM [inhibitor, single point]
O=C1/C(=C/c2cccs2)CCc2ccccc21	inconclusive: 8.2 µM [activator, partial curve, poor fit]
O=C1C2C3C=CC(C4CC34)C2C(=O)N1/N=C/c1ccc([N+](=O)[O-])s1 (centres undefined)	inconclusive: 35.5 µM [activator, single point]
COc1ccc([C@H]2C[C@H](c3ccc(C)cc3)Nc3nc(N)nn32)cc1	inactive
CCN1C(=O)CSC1=Nc1ccc(Cl)c(Cl)c1	inconclusive: 1.12 µM [inhibitor, full curve, poor fit]
O=C(N/N=C\c1ccc([N+](=O)[O-])o1)c1cncc(Br)c1	inconclusive: 17.8 µM [inhibitor, single point]

Structure (SMILES)	Potency
O=C(O)C1CC=CCC1C(=O)Nc1ccccc1 (centres undefined)	inconclusive: 23.1 µM [activator, partial curve, poor fit]
N/C(=N\OC(=O)/C=C/c1ccccc1Cl)c1ccncc1	inconclusive: 2.82 µM [activator, partial curve, poor fit]
Cc1ccc(S(=O)(=O)N2CCOCC2)cc1NC(=O)COC(=O)CSc1ccc(Br)cc1C	inactive
Cn1c(N)c(S(=O)(=O)N2CCN(c3ccccc3Cl)CC2)c(=O)n(C)c1=O	inconclusive: 35.5 µM [activator, single point]
Cc1c(NC(=O)CSc2ccc(Cl)cc2)cccc1-c1nc2ncccc2o1	inconclusive: 8.2 µM [inhibitor, partial curve, poor fit]
Cc1nc2ncccn2c1-c1csc(Nc2ccc(N(C)C)cc2)n1	inconclusive: 4.47 µM [inhibitor, partial curve]
COc1ccc(-n2nnnc2C2CCN(S(=O)(=O)c3ccc(F)cc3Cl)CC2)cc1	inconclusive: 10 µM [activator, partial curve]
CSc1ccccc1NC(=O)CN(C)CC(=O)Nc1ccc(Cl)cc1F	inconclusive: 6.31 µM [activator, single point]
CC(=O)N1N=C(N)SC1c1cccc([N+](=O)[O-])c1 (centres undefined)	inconclusive: 0.891 µM [inhibitor, full curve]
O=C(OCC(=O)N1CCCC1)c1ccc(O)cc1	inconclusive: 8.91 µM [activator, partial curve, poor fit]
C1=CC2c3ccccc3NC(c3ccncc3)C2C1 (centres undefined)	inconclusive: 10 µM [inhibitor, partial curve, poor fit]
Cc1cc(NC(=O)CSc2nnc(-c3ccc4c(c3)OCCO4)o2)no1	inconclusive: 7.08 µM [inhibitor, partial curve, poor fit]
CCOc1ccccc1-n1c(=S)sc2c(=O)n(-c3ccccc3)c(=S)[nH]c21	inconclusive: 2.24 µM [inhibitor, full curve, poor fit]
O=C(Cc1nn[nH]n1)c1ccccc1O	inactive
CC(=O)NCCNc1nc2c(-c3cccc(C)c3)nnn2c2ccc(Cl)cc12	inactive
COc1ccc(N2CCN(C(=O)c3ccc(C(C)(C)C)cc3)CC2)cc1	inconclusive: 35.5 µM [activator, single point]
COc1ccc(OC)c(NC(=O)C(=S)NC2CCCCC2)c1	inactive
Cc1noc(C)c1CSCC(=O)N1CCN(c2ccc([N+](=O)[O-])cc2)CC1	inconclusive: 35.5 µM [inhibitor, single point]
O=C(COC(=O)CNC(=O)c1cccc([N+](=O)[O-])c1)Nc1nc2ccccc2s1	inconclusive: 3.55 µM [activator, full curve, poor fit]
O=C(NC1CCCCC1)c1nn2c(C(F)(F)F)cc(-c3ccco3)nc2c1Br	inactive
Oc1ccc(Br)cc1/C=N/n1cnc2ccccc21	inactive
OC(CN1CCCCC1)CN1CCCCC1	inconclusive: 4.61 µM [inhibitor, partial curve, poor fit]
COc1cc2c3nnc(-c4ccccc4)c-3cn(Cc3ccccc3F)c2cc1OC	inconclusive: 15.8 µM [inhibitor, single point]

Of the compounds above, 10 have an aryl thioether with sulfur outside any ring.
Structure (SMILES)	Potency
Cc1ccc(S(=O)(=O)c2cnc(SCC(=O)Nc3ccccc3C(F)(F)F)[nH]c2=O)cc1C	inactive
COc1ccc(CN2CCNC(=O)C2CC(=O)NCCSc2nccn2C)c(OC)c1 (centres undefined)	inactive
CN(C)c1ccc(NC(=O)CSc2nc(-c3ccco3)cc(C(F)(F)F)n2)cc1	inconclusive: 0.562 µM [inhibitor, full curve, poor fit]
CCC(Sc1nc2cc(OC)c(OC)cc2c(=O)n1CCc1ccc(S(N)(=O)=O)cc1)C(=O)NCCOC (centres undefined)	inconclusive: 22.4 µM [inhibitor, partial curve, poor fit]
O=C(O)c1cc(-n2nnnc2SCc2ccccc2F)ccc1Cl	inactive
CCc1nc(SCC(=O)Nc2cccc3ccccc23)[nH]c(=O)c1C	inconclusive: 11.2 µM [inhibitor, partial curve, poor fit]
Cc1ccc(S(=O)(=O)N2CCOCC2)cc1NC(=O)COC(=O)CSc1ccc(Br)cc1C	inactive
Cc1c(NC(=O)CSc2ccc(Cl)cc2)cccc1-c1nc2ncccc2o1	inconclusive: 8.2 µM [inhibitor, partial curve, poor fit]
CSc1ccccc1NC(=O)CN(C)CC(=O)Nc1ccc(Cl)cc1F	inconclusive: 6.31 µM [activator, single point]
Cc1cc(NC(=O)CSc2nnc(-c3ccc4c(c3)OCCO4)o2)no1	inconclusive: 7.08 µM [inhibitor, partial curve, poor fit]

An excerpt of these results, field by field.
C(=N\n1cnnc1)/c1nc2ccccc2[nH]1
  Potency: inactive
COC(=O)c1nn(-c2ccc(Oc3ccccc3)cc2)c(=O)cc1O
  Potency: inactive
